Out of some 340,000 compounds screened, about 4,500 (1.3%) were called active. The inconclusive results got no clear call from the source; some entries with a clear call stand among them for comparison. Calls come from the whole dose curve; as a rule, active = well fitted inhibition curve with a large enough effect; inconclusive = small, poorly fitted or top-dose-only effect, or another doubt; inactive = no such curve, though single readings can be large or run the other way. Where the call is inconclusive, the potency comes from a doubtful curve fit.
Target: DNA polymerase beta (Homo sapiens) (UniProt P06746)
Experiment: qHTS Assay for Inhibitors of DNA Polymerase Beta
Conditions: Pol beta primer extension/strand displacement, fluorescence kinetic; activity change, negative = inhibition: at 114 µM (top of the series)
Procedure, shortened: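 Pol beta (10 nM) and compounds were preincubated 15 min at room temperature, then 50 nM substrate (final) started primer extension/strand displacement. Reads were taken at 0 and 10 min; concentration-response data were fitted to a four-parameter Hill equation.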
% is set by controls: 0 for no effect and ±100 for the full control effect; potency is the fitted concentration of half-maximal effect.

Row | SMILES | Potency | activity change, negative = inhibition
2 | O=C(Nc1ccccc1)NC1(C(=O)NCc2ccc3c(c2)OCO3)CCCCC1 | inconclusive: 0.708 µM [inhibitor, full curve] | 
3 | O=c1[nH]c(SCc2nc3ccccc3n2Cc2ccccc2)nc2ccccc12 | inconclusive: 25.1 µM [inhibitor, full curve, poor fit] | 
4 | O=c1cc(CSc2nnc(-c3cccnc3)n2-c2ccccc2F)nc2sccn12 | inconclusive: 89.1 µM [inhibitor, single point] | 
5 | Cc1cc(C)nc(N2CCCC(C(=O)NCC(c3ccccc3)c3ccccc3)C2)n1 (centres undefined) | inconclusive: 89.1 µM [inhibitor, single point] | 
6 | CSc1ccc(CCNC(=O)c2cc3cc4cc(C)ccc4nc3s2)cc1 | inconclusive: 1.58 µM [inhibitor, full curve, poor fit] | 
7 | CCN1C=C(Cc2cccs2)C2=C(C1)C(c1cccs1)C(C#N)=C(N)O2 (centres undefined) | inconclusive: 20 µM [inhibitor, full curve, poor fit] | 
8 | COc1ccc(OC)c(/C=N/Nc2nc(C)cc(=O)[nH]2)c1 | inconclusive: 39.8 µM [inhibitor, single point] | 
9 | CCc1ccc(CNC(=O)c2cnc3c(C)cccn3c2=O)cc1 |  | inactive: 30.4%
10 | Cc1ccc(Nc2cc(C)c(C#N)c3nc4ccccc4n23)c(C)c1 |  | inactive: 29.1%
11 | COC(=O)c1sccc1S(=O)(=O)N(CC(=O)Nc1ccccc1)c1ccccc1 | inconclusive: 89.1 µM [inhibitor, single point] | 
12 | CCCC(=O)Nc1cccc(-c2cn3c(C)csc3n2)c1 | inconclusive: 100 µM [inhibitor, single point] | 
13 | S=C(NCc1cccnc1)Nc1ccc(Cl)cc1Cl | inconclusive: 31.6 µM [inhibitor, single point] | 
14 | CCCC(=O)Nc1ccc(N2CCN(C(=O)c3cccs3)CC2)cc1 | inconclusive: 89.1 µM [inhibitor, single point] | 
15 | CCNC(=S)N/N=C1\C(=O)c2cccc3cccc1c23 |  | inactive: -3.42%
16 | CC(C)(C)c1cc(C(=O)NCc2cc(F)cc3c2OCOC3)n(Cc2ccccc2)n1 | inconclusive: 70.8 µM [inhibitor, single point] | 
17 | CCOC(=O)c1ccccc1NC(=O)c1cc2ccc3cccnc3c2[nH]1 | inconclusive: 35.5 µM [inhibitor, partial curve] | 
18 | CCOC(=O)C(=Cc1ccccc1OC)C(=O)OCC | inconclusive: 89.1 µM [inhibitor, single point] | 
19 | O=C(O)c1ccc(/C=N/NC(=O)c2cc(-c3ccc4c5c(cccc35)CC4)n[nH]2)cc1 | active: 28.2 µM | 

2 entries picked at random from those above, as already listed:
Row | SMILES | Potency | activity change, negative = inhibition
4 | O=c1cc(CSc2nnc(-c3cccnc3)n2-c2ccccc2F)nc2sccn12 | inconclusive: 89.1 µM [inhibitor, single point] | 
12 | CCCC(=O)Nc1cccc(-c2cn3c(C)csc3n2)c1 | inconclusive: 100 µM [inhibitor, single point] | 

— PubChem BioAssay AID485314 (National Center for Advancing Translational Sciences (NCATS), 2010)
